{"source": "patent US6372495B1", "about": "“Bio-artificial organ containing a matrix having hollow fibers for supplying gaseous oxygen” (Seed Capital Investments-2 (SCI-2) B.V., priority 1998, dated 2002)", "system": "cytochrome P450", "experiment": "Lidocaine metabolism", "type": "in vitro ADME, pig", "note": "Where a name gives a salt, the structure may show the parent alone."}
{"smiles": "CCN(CC)CC(=O)Nc1c(C)cccc1C", "note": "[lidocaine, Lidocaine-HCl]", "values": [{"measurement": "lidocaine elimination and subsequent MEGX and Xylidine production", "setting": "60 min. incubation, 500 μ/ml, over a period of three days, porcine hepatocytes in bioreactor", "value": "did not significantly change"}, {"measurement": "main lidocaine metabolite", "setting": "first two days of culture, porcine hepatocytes in bioreactor", "value": "Xylidine"}, {"measurement": "production of the metabolite GX", "setting": "incubation with lidocaine for one hour, porcine hepatocytes", "value": "did not produce detectable levels"}]}
